Reference: article PMC3492188
No constants are given. Whether binding was seen depends on the method and setting. Binding seen in cells or lysates may run through a third protein. Some binding calls cover weakened binding; strength is not graded here. Tags and fused reporters may be left off the sequences shown.

Amino acid sequences for entries named in this document (tags omitted).
UniProt P19091: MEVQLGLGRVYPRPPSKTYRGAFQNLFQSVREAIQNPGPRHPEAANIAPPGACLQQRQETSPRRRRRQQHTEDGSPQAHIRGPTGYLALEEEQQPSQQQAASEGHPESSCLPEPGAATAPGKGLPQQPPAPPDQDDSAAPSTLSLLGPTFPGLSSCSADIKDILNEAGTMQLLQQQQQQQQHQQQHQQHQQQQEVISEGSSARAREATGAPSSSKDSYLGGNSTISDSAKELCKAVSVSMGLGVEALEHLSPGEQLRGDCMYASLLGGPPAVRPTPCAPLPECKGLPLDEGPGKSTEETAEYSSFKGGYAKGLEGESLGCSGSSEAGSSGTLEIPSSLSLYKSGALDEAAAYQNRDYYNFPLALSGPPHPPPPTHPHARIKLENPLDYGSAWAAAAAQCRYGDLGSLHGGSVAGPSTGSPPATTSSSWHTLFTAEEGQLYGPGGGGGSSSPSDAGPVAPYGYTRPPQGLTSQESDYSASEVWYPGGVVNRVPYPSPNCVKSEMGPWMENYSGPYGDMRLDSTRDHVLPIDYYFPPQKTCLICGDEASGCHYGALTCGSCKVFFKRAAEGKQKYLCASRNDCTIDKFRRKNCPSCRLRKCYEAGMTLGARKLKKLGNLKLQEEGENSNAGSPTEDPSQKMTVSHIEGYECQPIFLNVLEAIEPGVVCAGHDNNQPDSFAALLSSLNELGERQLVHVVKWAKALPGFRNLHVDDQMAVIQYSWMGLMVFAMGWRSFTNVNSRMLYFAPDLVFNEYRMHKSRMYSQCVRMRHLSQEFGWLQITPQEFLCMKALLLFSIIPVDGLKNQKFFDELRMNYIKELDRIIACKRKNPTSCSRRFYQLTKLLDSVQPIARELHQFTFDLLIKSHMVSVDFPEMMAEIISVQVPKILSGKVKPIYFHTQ

Experiments:
[1] = target: T1, GFP-COUP-TF II (mouse) (UniProt P43135); experiment: co-IP; PPC-1 cells transfected with AR and GFP-COUP-TF II, treated with 10 nM DHT or vehicle; RIPA lysate; immunoprecipitation with anti-AR (sc-815) or anti-GFP (sc-9996), Western blot with both
T1 sequence: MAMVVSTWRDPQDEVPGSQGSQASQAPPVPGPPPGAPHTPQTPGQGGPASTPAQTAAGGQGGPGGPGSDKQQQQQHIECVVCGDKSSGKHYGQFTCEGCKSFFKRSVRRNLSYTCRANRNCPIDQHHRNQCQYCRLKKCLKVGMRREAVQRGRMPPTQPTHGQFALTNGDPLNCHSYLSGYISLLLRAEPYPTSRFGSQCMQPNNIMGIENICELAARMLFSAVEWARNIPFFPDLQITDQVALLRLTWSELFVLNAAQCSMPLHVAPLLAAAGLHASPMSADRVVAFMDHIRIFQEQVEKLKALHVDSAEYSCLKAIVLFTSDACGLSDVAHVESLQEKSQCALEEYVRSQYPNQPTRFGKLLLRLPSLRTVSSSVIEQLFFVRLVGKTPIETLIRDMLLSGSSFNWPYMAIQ

[2] = target: T2, GST-COUP-TF II full length (mouse) (UniProt P43135); experiment: pull-down; GST fusion proteins immobilised on glutathione-Sepharose-4B beads, incubated with [35S] methionine-labeled in vitro translated protein; GST-binding buffer (20 mM Tris-HCl pH 7.9, 250 mM NaCl, 10% glycerol, 0.05% NP-40, 5 mM MgCl2, 0.5 mM EDTA, 1 mM DTT, 1.5% BSA), overnight at 4°C; SDS-PAGE and autoradiography; only the target purified
T2 sequence: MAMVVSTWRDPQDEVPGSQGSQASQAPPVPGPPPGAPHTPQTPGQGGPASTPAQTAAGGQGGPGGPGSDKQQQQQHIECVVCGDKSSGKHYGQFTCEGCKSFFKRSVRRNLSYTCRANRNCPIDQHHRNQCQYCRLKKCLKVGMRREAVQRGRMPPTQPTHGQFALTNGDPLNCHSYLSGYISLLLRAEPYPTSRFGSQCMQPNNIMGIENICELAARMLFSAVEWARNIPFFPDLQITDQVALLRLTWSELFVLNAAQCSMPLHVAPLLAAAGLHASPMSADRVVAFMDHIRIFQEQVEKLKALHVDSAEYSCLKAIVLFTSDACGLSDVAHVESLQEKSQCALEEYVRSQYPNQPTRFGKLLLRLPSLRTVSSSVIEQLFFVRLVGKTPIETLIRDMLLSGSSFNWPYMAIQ

[3] = target: Androgen receptor (AR), expressed in PPC-1 cells (mouse) (UniProt P19091); experiment: co-IP; PPC-1 cells transfected with AR and GFP-COUP-TF II, treated with 10 nM DHT or vehicle; RIPA lysate; immunoprecipitation with anti-AR (sc-815) or anti-GFP (sc-9996), Western blot with both

## Androgen receptor (AR), expressed in PPC-1 cells (from UniProt P19091 1-899)
[1]
  binding: binds

## Androgen receptor (AR), in vitro translated (from UniProt P19091 1-899)
[2]
  binding: binds

B1: GFP-COUP-TF II (protein, UniProt P43135 1-414)
chain: MAMVVSTWRDPQDEVPGSQGSQASQAPPVPGPPPGAPHTPQTPGQGGPASTPAQTAAGGQGGPGGPGSDKQQQQQHIECVVCGDKSSGKHYGQFTCEGCKSFFKRSVRRNLSYTCRANRNCPIDQHHRNQCQYCRLKKCLKVGMRREAVQRGRMPPTQPTHGQFALTNGDPLNCHSYLSGYISLLLRAEPYPTSRFGSQCMQPNNIMGIENICELAARMLFSAVEWARNIPFFPDLQITDQVALLRLTWSELFVLNAAQCSMPLHVAPLLAAAGLHASPMSADRVVAFMDHIRIFQEQVEKLKALHVDSAEYSCLKAIVLFTSDACGLSDVAHVESLQEKSQCALEEYVRSQYPNQPTRFGKLLLRLPSLRTVSSSVIEQLFFVRLVGKTPIETLIRDMLLSGSSFNWPYMAIQ
[3]
  binding: binds
